These are yes or no findings as the source states them, for the method shown. A result given as binding can be weak or reduced; the word gives no strength. One block for each binder: values may come before it.
Experiments:
[1] = target: PARLΔ77 (β-cleavage form of human PARL) (human) (UniProt Q9H300); experiment: competitive inhibition of FRET peptide cleavage (enzyme kinetics); PARLΔ77 0.8 μM; IQ-Smac/Diablo 51-60 (0.3–25 μM) as main substrate; nonfluorescent PINK1 89-111 at 2.5, 5, 10, 20 μM; Michaelis–Menten plots fitted globally, competitive model; Kd represented by Ki; both purified
[2] = target: PARLΔ77 (β-cleavage form of human PARL) (human) (UniProt Q9H300); experiment: competitive inhibition of FRET peptide cleavage (enzyme kinetics); PARLΔ77 0.8 μM; IQ-PGAM5 20-29 (0.13-19 μM) as main substrate; nonfluorescent PINK1 89-111 at 2.5, 5, 10, 20 μM; Michaelis–Menten plots fitted globally, competitive model; Kd represented by Ki; both purified

By UniProt entry, the sequences of proteins in these tests, tags left out. Where a name states a change or a piece, a line headed by the entry shows the natural chain unless it says otherwise.
UniProt Q9H300: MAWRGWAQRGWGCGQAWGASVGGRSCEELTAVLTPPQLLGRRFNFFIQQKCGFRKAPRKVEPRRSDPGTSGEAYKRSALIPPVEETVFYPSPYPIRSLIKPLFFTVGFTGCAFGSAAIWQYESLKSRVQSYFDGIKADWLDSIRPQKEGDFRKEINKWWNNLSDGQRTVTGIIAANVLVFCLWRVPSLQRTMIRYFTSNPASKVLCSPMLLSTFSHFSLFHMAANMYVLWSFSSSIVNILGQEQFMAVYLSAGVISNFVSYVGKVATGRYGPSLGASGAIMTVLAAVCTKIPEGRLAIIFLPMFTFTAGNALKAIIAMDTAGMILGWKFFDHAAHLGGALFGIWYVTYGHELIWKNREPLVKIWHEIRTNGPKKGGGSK
UniProt Q9NR28: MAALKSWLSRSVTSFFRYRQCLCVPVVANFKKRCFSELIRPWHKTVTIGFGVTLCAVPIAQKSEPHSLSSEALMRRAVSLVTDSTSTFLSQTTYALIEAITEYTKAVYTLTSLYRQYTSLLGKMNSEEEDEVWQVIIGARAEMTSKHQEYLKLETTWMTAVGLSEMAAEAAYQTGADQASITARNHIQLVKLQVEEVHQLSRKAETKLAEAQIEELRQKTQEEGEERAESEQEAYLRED
UniProt Q96HS1: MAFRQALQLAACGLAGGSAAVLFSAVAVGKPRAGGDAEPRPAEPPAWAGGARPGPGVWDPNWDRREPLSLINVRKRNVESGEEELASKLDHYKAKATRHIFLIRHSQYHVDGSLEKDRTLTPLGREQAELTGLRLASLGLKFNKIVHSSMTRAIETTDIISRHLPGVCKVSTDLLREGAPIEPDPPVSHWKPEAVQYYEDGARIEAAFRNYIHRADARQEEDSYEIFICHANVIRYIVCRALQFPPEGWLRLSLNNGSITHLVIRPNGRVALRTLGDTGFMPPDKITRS

binding [1]: binds
B1: IQ-Smac/Diablo^51–60 internally quenched peptide substrate (peptide, UniProt Q9NR28 51-60)
peptide: GVTLCAVPIA
modifications: EDANS/Dabcyl FRET tags (ends not stated)

binding [2]: binds
B2: IQ-PGAM5^20–29 internally quenched peptide substrate (peptide, UniProt Q96HS1 20-29)
peptide: AVLFSAVAVG
modifications: EDANS/Dabcyl FRET tags (ends not stated)
